Laboratory results taken from patent US20230257436A1 (published 2023).
No constants are given. Whether binding was seen depends on the method and setting. Some entries that bind do so weakly or less than the wild type.

Chains of the proteins cited; added tags and fusions are not shown. Residues count along the entry.
UniProt P28799, residues 18-593: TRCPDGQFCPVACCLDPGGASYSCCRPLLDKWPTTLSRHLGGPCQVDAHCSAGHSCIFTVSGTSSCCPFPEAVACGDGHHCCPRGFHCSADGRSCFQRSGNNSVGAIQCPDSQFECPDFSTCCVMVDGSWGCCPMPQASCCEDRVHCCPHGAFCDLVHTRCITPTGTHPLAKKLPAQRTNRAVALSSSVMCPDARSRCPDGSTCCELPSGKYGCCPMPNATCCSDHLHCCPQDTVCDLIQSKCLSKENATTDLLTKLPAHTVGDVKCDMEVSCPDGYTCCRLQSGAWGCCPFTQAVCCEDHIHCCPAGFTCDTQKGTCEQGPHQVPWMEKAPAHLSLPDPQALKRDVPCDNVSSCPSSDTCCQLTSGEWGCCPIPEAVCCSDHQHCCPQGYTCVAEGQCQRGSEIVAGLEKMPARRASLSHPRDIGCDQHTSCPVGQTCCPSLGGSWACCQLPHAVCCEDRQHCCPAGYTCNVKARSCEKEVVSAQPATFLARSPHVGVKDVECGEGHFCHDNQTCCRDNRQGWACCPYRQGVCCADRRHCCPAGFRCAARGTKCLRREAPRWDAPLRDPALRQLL

How the values were obtained:
[1] = target: T1, endogenous human prosaposin (PSAP), as expressed by non-PSAP-transfected ARPE-19 derived cells and as present in human plasma and CSF (human) (UniProt P07602); test: PGRN/PSAP and PSAP/PGRN sandwich ELISA on conditioned media
T1 sequence (looked up): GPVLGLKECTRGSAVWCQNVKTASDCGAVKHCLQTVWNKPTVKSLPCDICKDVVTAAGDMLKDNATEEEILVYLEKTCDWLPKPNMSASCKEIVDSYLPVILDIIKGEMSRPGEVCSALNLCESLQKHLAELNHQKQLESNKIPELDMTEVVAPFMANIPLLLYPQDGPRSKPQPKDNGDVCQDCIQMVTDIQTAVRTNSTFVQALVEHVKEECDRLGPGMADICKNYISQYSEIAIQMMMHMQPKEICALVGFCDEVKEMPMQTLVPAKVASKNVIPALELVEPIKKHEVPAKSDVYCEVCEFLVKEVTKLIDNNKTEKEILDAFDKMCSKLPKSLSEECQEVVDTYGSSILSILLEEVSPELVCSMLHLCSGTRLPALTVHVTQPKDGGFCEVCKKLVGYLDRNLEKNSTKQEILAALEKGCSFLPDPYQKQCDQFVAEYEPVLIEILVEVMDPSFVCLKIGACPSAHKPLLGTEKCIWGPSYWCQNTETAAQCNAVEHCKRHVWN

[2] = target: T2, commercially available recombinant PSAP (Abnova) (UniProt P07602); test: sandwich ELISA, capture of PGRN or of PSAP first, detection of the other
T2 sequence (looked up): T1 sequence (looked up)

[3] = target: T2, commercially available recombinant PSAP (Abnova); test: PSAP/PGRN complex sandwich ELISA (anti-PSAP capture, anti-PGRN detection)
[4] = target: T2, commercially available recombinant PSAP (Abnova); test: PGRN/PSAP complex sandwich ELISA (anti-PGRN capture, anti-PSAP detection)

| binding [1] | binding [2] | binding [3] | binding [4] | Substance |
| --- | --- | --- | --- | --- |
| binds | – | – | – | FLAG-PGRN secreted from FLAG-PGRN transfected cells (from UniProt P28799 18-593) (ligand) |
| – | binds | binds | binds | commercially available recombinant PGRN (R&D Systems; PGRN-His, cat no. 2420-PG) (from UniProt P28799 18-593) (ligand) |
